Data reported in paper doi:10.1101/2022.05.18.492435.
These are yes or no findings as the source states them, for the method shown. Binding seen in cells or lysates may run through a third protein. Some binding calls cover weakened binding; strength is not graded here.

Sequences of proteins named here, by UniProt entry; tags and fusion partners are left off.
UniProt P35226: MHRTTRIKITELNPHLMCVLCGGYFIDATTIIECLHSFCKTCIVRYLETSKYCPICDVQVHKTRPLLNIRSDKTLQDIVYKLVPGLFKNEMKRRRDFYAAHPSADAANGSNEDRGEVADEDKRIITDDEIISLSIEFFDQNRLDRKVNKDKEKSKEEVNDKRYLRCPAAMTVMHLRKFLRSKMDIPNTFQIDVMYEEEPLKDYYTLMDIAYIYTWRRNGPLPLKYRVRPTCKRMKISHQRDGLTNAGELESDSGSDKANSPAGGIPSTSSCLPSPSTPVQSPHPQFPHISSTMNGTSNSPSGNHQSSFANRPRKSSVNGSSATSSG
UniProt Q9BSM1: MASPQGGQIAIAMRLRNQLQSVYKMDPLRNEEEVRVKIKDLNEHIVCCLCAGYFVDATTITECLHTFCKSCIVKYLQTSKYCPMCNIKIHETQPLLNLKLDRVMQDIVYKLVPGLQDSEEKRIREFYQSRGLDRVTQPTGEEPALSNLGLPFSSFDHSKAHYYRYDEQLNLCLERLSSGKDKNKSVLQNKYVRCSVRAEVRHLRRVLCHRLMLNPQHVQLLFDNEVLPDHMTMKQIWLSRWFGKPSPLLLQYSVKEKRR
UniProt Q06587: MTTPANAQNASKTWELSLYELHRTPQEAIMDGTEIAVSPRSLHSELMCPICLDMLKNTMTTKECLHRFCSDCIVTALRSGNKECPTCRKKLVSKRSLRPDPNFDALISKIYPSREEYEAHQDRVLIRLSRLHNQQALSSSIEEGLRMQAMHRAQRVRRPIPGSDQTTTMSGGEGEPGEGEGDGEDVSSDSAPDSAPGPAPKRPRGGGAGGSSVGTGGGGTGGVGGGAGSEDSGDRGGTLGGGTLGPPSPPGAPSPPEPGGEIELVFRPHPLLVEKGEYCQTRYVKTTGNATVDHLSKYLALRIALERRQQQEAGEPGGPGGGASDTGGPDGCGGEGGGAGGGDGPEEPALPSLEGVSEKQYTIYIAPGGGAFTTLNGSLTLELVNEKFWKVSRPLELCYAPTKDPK
UniProt Q6W2J9: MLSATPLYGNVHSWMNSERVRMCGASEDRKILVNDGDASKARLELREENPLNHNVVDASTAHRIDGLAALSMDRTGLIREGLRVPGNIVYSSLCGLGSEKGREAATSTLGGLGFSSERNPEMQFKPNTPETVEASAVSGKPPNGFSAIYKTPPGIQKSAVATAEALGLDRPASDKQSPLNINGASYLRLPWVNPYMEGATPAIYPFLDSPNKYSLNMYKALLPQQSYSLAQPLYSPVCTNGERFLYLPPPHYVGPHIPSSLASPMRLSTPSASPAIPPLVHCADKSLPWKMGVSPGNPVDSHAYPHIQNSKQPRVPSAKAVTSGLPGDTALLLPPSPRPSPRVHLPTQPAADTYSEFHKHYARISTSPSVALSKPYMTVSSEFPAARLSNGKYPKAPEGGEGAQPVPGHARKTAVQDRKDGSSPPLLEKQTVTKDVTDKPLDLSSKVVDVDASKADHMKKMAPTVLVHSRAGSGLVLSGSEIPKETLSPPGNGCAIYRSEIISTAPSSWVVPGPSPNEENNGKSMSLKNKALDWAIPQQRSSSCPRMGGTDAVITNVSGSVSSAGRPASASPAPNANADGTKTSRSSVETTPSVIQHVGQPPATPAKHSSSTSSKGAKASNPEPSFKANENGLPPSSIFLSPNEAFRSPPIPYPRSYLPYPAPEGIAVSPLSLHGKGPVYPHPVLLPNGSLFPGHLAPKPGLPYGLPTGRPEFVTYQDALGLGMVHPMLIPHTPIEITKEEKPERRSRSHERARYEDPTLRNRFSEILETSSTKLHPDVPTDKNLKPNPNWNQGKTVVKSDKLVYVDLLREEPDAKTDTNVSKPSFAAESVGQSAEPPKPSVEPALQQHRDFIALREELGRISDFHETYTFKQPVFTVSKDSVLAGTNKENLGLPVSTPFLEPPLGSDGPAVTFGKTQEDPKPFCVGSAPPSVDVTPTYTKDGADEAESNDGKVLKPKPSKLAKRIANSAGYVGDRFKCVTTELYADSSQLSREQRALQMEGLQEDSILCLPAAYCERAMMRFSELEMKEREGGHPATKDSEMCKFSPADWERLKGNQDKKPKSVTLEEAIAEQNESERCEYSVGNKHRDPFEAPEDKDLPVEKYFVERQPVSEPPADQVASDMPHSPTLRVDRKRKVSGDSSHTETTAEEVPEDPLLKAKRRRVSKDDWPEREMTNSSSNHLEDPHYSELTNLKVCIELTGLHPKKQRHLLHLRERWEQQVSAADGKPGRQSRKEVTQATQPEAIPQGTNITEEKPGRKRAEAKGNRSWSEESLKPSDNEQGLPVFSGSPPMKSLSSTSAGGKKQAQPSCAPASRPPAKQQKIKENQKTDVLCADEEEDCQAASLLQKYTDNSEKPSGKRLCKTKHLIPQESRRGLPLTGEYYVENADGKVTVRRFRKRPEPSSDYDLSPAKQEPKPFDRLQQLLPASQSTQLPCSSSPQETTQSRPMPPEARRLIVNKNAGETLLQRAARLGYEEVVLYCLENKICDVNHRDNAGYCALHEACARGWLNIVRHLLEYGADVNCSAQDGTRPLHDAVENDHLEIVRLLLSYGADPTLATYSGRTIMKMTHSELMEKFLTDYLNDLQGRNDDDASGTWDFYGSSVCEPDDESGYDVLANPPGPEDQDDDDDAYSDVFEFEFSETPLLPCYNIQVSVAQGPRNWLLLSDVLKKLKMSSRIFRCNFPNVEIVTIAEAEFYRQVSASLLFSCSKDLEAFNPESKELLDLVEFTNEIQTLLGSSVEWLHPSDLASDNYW
UniProt Q99496: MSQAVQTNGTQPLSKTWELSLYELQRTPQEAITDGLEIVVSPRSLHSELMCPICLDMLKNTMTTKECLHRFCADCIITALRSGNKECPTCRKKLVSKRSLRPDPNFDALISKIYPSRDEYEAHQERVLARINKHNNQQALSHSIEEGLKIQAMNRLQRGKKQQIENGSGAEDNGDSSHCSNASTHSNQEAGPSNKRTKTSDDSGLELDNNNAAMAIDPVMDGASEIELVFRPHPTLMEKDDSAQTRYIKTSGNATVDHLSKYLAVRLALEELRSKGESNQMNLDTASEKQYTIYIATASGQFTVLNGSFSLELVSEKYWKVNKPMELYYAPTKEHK

Key:
Assay in all cases: co-IP
[1] = biological target: PCGF4 (human (endogenous in NT2)) (UniProt P35226)
[2] = biological target: PCGF1 (human (endogenous in NT2)) (UniProt Q9BSM1)
[3] = biological target: T1, PCGF2 (human (endogenous in NT2)) (UniProt P35227)
T1 sequence: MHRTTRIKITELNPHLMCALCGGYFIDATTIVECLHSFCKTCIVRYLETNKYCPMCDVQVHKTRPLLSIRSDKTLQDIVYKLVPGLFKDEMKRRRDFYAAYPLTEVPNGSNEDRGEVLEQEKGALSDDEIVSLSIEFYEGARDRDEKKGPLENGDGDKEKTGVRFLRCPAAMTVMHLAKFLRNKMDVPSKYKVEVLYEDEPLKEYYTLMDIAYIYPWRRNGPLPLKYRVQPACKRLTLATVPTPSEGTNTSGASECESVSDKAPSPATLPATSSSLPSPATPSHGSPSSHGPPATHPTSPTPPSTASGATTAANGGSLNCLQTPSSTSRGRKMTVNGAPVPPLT

## RING1A (from UniProt Q06587 1-406)
[1]
  binding: binds
[2]
  binding: binds
[3]
  binding: binds

## BCOR (from UniProt Q6W2J9 1-1755)
[2]
  binding: binds

## RNF2 (from UniProt Q99496 1-336)
[3]
  binding: binds
